PubChem BioAssay AID1224826, NIAID | 2016
Purpose: 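Genes that change LPS-induced Tnf promoter activity in mouse macrophages when knocked down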 (primary screen). Cells: RAW264.7 G9 macrophages from mouse bearing reporters for p65 (GFP) and the Tnf promoter (mCherry). Reagents: siRNA pool against mouse genes, 100 nM. Time to read-out: 16 h of LPS stimulation, after 2 days of siRNA transfection. Treatment: bacterial lipopolysaccharide (Salmonella minnesota R595), 10 ng/ml. Measured: 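Nuclear mCherry signal of the Tnf promoter reporter measured by imaging after background removal, scaled to each plate median and turned into robust z-scores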. Scale: Tnf reporter robust z-score: higher = stronger Tnf promoter reporter signal after LPS. Active means: 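a well counts as active at a score of -1.3 or below (Tlr4 knock-down control median) or above 3 (raised signal); controls and wells holding fewer than 50 cells are excluded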. Calls: active = Tnf reporter clearly lowered or raised; inactive = no clear change in Tnf reporter.
The deposit covers about 17,000 reagents; this is a part drawn at random. Over the whole deposit, about 1,110 (6.6%) are marked active. 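Active means lowered or raised reporter signal; replicate intensities are raw and not normalised per plate.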 Entries without a mark were called inactive. Reagents against one gene are numbered here. Not all columns of the deposit are shown.

gene | pool no. | Tnf reporter robust z-score | fewer than 50 cells in well
Lasp1 (LIM and SH3 protein 1) | 1 | -1.23 | enough cells in well
Ccnl1 (cyclin L1) | 1 | -0.44 | enough cells in well
Ptpn7 (protein tyrosine phosphatase, non-receptor type 7) | 1 | -0.52 | enough cells in well
Nme3 (NME/NM23 nucleoside diphosphate kinase 3) | 1 | – | fewer than 50 cells per well; well left out of calls
Rps19 (ribosomal protein S19) | 1 | -0.21 | enough cells in well
Arl5b (ADP-ribosylation factor-like 5B) | 1 | 0.3 | enough cells in well
Capn5 (calpain 5) | 1 | 0 | enough cells in well
Nsmce1 (NSE1 homolog, SMC5-SMC6 complex component) | 1 | 0.44 | enough cells in well

Next part; the last 3 above are carried over.
gene | pool no. | Tnf reporter robust z-score | fewer than 50 cells in well
Arl5b (ADP-ribosylation factor-like 5B) | 1 | 0.3 | enough cells in well
Capn5 (calpain 5) | 1 | 0 | enough cells in well
Nsmce1 (NSE1 homolog, SMC5-SMC6 complex component) | 1 | 0.44 | enough cells in well
Serpinb1a (serine (or cysteine) peptidase inhibitor, clade B, member 1a) | 1 | 0.87 | enough cells in well
Or5k3 (olfactory receptor family 5 subfamily K member 3) | 1 | -1.47 (active) | enough cells in well
Tek (TEK receptor tyrosine kinase) | 1 | 2.45 | enough cells in well
Rbm25 (RNA binding motif protein 25) | 1 | 0.28 | enough cells in well
Rbm25 (RNA binding motif protein 25) | 2 | 0.38 | enough cells in well
Ecrg4 (ECRG4 augurin precursor) | 1 | 1.74 | enough cells in well
Kpna6 (karyopherin subunit alpha 6) | 1 | 0.07 | enough cells in well
Akr1c18 (aldo-keto reductase family 1, member C18) | 1 | – | fewer than 50 cells per well; well left out of calls
Mmp13 (matrix metallopeptidase 13) | 1 | -0.38 | enough cells in well
Bcap29 (B cell receptor associated protein 29) | 1 | -0.31 | enough cells in well
Uchl3 | 1 | -1.68 (active) | enough cells in well
Rnf139 (ring finger protein 139) | 1 | 0.84 | enough cells in well
Ppp2ca | 1 | -0.14 | enough cells in well
Dapp1 (dual adaptor for phosphotyrosine and 3-phosphoinositides 1) | 1 | 0.87 | enough cells in well
Fam178b (family with sequence similarity 178, member B) | 1 | 0.05 | enough cells in well
Mtmr7 (myotubularin related protein 7) | 1 | 0.55 | enough cells in well
